Experimental data from PMC9967848.
No constants are given. Whether binding was seen depends on the method and setting. Binding seen in cells or lysates may run through a third protein. A yes stands for co-enrichment or nearness to the bait. Other partners may have been found.

Sequences of proteins named here, by UniProt entry; tags and fusion partners are left off.
UniProt Q9P2J5: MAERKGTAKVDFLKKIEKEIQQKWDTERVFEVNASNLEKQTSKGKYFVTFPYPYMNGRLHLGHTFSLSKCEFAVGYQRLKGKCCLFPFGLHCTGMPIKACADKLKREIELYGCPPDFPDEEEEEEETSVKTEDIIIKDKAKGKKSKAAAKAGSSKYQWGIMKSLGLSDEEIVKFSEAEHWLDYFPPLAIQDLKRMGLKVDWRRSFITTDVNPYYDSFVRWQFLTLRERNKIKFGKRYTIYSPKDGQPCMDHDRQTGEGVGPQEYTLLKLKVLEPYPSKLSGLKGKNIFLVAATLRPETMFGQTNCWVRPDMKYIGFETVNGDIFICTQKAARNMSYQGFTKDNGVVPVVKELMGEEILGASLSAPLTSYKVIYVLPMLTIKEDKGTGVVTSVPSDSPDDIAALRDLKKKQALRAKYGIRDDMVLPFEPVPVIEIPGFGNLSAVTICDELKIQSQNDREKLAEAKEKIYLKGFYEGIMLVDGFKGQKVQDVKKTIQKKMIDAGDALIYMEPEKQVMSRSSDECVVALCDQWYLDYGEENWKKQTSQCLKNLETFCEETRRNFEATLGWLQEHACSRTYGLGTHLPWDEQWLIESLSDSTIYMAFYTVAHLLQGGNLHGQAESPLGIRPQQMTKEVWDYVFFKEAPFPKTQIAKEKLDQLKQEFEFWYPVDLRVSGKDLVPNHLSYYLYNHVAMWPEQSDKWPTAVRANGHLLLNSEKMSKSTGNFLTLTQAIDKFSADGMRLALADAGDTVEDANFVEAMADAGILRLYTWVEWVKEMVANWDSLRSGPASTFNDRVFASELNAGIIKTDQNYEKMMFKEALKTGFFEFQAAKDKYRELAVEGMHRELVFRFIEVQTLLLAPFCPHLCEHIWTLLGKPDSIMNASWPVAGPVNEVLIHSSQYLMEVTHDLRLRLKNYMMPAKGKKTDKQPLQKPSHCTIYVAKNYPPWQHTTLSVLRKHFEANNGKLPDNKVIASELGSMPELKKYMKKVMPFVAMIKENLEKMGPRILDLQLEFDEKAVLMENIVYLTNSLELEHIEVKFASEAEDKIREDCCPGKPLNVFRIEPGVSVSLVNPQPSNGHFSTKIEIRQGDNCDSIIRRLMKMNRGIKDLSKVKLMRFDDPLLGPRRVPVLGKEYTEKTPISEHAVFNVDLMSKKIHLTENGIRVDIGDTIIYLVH

Molecular target: FLAG-tagged HIV-1 MA (HIV-1) (UniProt P12493)
Test: affinity purification with mass spectrometry

Question: With “leucyl-tRNA synthetase (LARS), endogenous (from UniProt Q9P2J5 1-1176) (enzyme)” as the molecule, how does the binding read?
Answer: binds

Question: “lysyl-tRNA synthetase (LysRS, KARS), endogenous (from UniProt Q15046 1-597) (enzyme)” was tested. Which binding did it give?
Answer: binds

B1: isoleucyl-tRNA synthetase (IARS), endogenous (enzyme, UniProt P41252 1-1262)
chain: MLQQVPENINFPAEEEKILEFWTEFNCFQECLKQSKHKPKFTFYDGPPFATGLPHYGHILAGTIKDIVTRYAHQSGFHVDRRFGWDCHGLPVEYEIDKTLGIRGPEDVAKMGITEYNNQCRAIVMRYSAEWKSTVSRLGRWIDFDNDYKTLYPQFMESVWWVFKQLYDKGLVYRGVKVMPFSTACNTPLSNFESHQNYKDVQDPSVFVTFPLEEDETVSLVAWTTTPWTLPSNLAVCVNPEMQYVKIKDVARGRLLILMEARLSALYKLESDYEILERFPGAYLKGKKYRPLFDYFLKCKENGAFTVLVDNYVKEEEGTGVVHQAPYFGAEDYRVCMDFNIIRKDSLPVCPVDASGCFTTEVTDFAGQYVKDADKSIIRTLKEQGRLLVATTFTHSYPFCWRSDTPLIYKAVPSWFVRVENMVDQLLRNNDLCYWVPELVREKRFGNWLKDARDWTISRNRYWGTPIPLWVSDDFEEVVCIGSVAELEELSGAKISDLHRESVDHLTIPSRCGKGSLHRISEVFDCWFESGSMPYAQVHYPFENKREFEDAFPADFIAEGIDQTRGWFYTLLVLATALFGQPPFKNVIVNGLVLASDGQKMSKRKKNYPDPVSIIQKYGADALRLYLINSPVVRAENLRFKEEGVRDVLKDVLLPWYNAYRFLIQNVLRLQKEEEIEFLYNENTVRESPNITDRWILSFMQSLIGFFETEMAAYRLYTVVPRLVKFVDILTNWYVRMNRRRLKGENGMEDCVMALETLFSVLLSLCRLMAPYTPFLTELMYQNLKVLIDPVSVQDKDTLSIHYLMLPRVREELIDKKTESAVSQMQSVIELGRVIRDRKTIPIKYPLKEIVVIHQDPEALKDIKSLEKYIIEELNVRKVTLSTDKNKYGIRLRAEPDHMVLGKRLKGAFKAVMTSIKQLSSEELEQFQKTGTIVVEGHELHDEDIRLMYTFDQATGGTAQFEAHSDAQALVLLDVTPDQSMVDEGMAREVINRIQKLRKKCNLVPTDEITVYYKAKSEGTYLNSVIESHTEFIFTTIKAPLKPYPVSPSDKVLIQEKTQLKGSELEITLTRGSSLPGPACAYVNLNICANGSEQGGVLLLENPKGDNRLDLLKLKSVVTSIFGVKNTELAVFHDETEIQNQTDLLSLSGKTLCVTAGSAPSLINSSSTLLCQYINLQLLNAKPQECLMGTVGTLLLENPLGQNGLTHQGLLYEAAKVFGLRSRKLKLFLNETQTQEITEDIPVKTLNMKTVYVSVLPTTADF
Question: With B1 as the molecule, how does the binding read?
Answer: binds

B2: ARS-interacting multifunctional protein 1 (AIMP1/p43), endogenous (protein, UniProt Q12904 1-312)
chain: MANNDAVLKRLEQKGAEADQIIEYLKQQVSLLKEKAILQATLREEKKLRVENAKLKKEIEELKQELIQAEIQNGVKQIPFPSGTPLHANSMVSENVIQSTAVTTVSSGTKEQIKGGTGDEKKAKEKIEKKGEKKEKKQQSIAGSADSKPIDVSRLDLRIGCIITARKHPDADSLYVEEVDVGEIAPRTVVSGLVNHVPLEQMQNRMVILLCNLKPAKMRGVLSQAMVMCASSPEKIEILAPPNGSVPGDRITFDAFPGEPDKELNPKKKIWEQIQPDLHTNDECVATYKGVPFEVKGKGVCRAQTMSNSGIK
Question: How did the binding turn out when B2 was run?
Answer: binds

B3: methionyl-tRNA synthetase (MARS), endogenous (enzyme, UniProt P56192 1-900)
chain: MRLFVSDGVPGCLPVLAAAGRARGRAEVLISTVGPEDCVVPFLTRPKVPVLQLDSGNYLFSTSAICRYFFLLSGWEQDDLTNQWLEWEATELQPALSAALYYLVVQGKKGEDVLGSVRRALTHIDHSLSRQNCPFLAGETESLADIVLWGALYPLLQDPAYLPEELSALHSWFQTLSTQEPCQRAAETVLKQQGVLALRPYLQKQPQPSPAEGRAVTNEPEEEELATLSEEEIAMAVTAWEKGLESLPPLRPQQNPVLPVAGERNVLITSALPYVNNVPHLGNIIGCVLSADVFARYSRLRQWNTLYLCGTDEYGTATETKALEEGLTPQEICDKYHIIHADIYRWFNISFDIFGRTTTPQQTKITQDIFQQLLKRGFVLQDTVEQLRCEHCARFLADRFVEGVCPFCGYEEARGDQCDKCGKLINAVELKKPQCKVCRSCPVVQSSQHLFLDLPKLEKRLEEWLGRTLPGSDWTPNAQFITRSWLRDGLKPRCITRDLKWGTPVPLEGFEDKVFYVWFDATIGYLSITANYTDQWERWWKNPEQVDLYQFMAKDNVPFHSLVFPCSALGAEDNYTLVSHLIATEYLNYEDGKFSKSRGVGVFGDMAQDTGIPADIWRFYLLYIRPEGQDSAFSWTDLLLKNNSELLNNLGNFINRAGMFVSKFFGGYVPEMVLTPDDQRLLAHVTLELQHYHQLLEKVRIRDALRSILTISRHGNQYIQVNEPWKRIKGSEADRQRAGTVTGLAVNIAALLSVMLQPYMPTVSATIQAQLQLPPPACSILLTNFLCTLPAGHQIGTVSPLFQKLENDQIESLRQRFGGGQAKTSPKPAVVETVTTAKPQQIQALMDEVTKQGNIVRELKAQKADKNEVAAEVAKLLDLKKQLAVAEGKPPEAPKGKKKK
Question: Which binding does the source give for B3 here?
Answer: binds

B4: ARS-interacting multifunctional protein 2 (AIMP2/p38), endogenous (protein, UniProt Q13155 1-320)
chain: MPMYQVKPYHGGGAPLRVELPTCMYRLPNVHGRSYGPAPGAGHVQEESNLSLQALESRQDDILKRLYELKAAVDGLSKMIQTPDADLDVTNIIQADEPTTLTTNALDLNSVLGKDYGALKDIVINANPASPPLSLLVLHRLLCEHFRVLSTVHTHSSVKSVPENLLKCFGEQNKKQPRQDYQLGFTLIWKNVPKTQMKFSIQTMCPIEGEGNIARFLFSLFGQKHNAVNATLIDSWVDIAIFQLKEGSSKEKAAVFRSMNSALGKSPWLAGNELTVADVVLWSVLQQIGGCSVTVPANVQRWMRSCENLAPFNTALKLLK
Question: For B4, which binding is on record?
Answer: binds

B5: glutaminyl-tRNA synthetase (QARS), endogenous (enzyme, UniProt P47897 1-775)
chain: MAALDSLSLFTSLGLSEQKARETLKNSALSAQLREAATQAQQTLGSTIDKATGILLYGLASRLRDTRRLSFLVSYIASKKIHTEPQLSAALEYVRSHPLDPIDTVDFERECGVGVIVTPEQIEEAVEAAINRHRPQLLVERYHFNMGLLMGEARAVLKWADGKMIKNEVDMQVLHLLGPKLEADLEKKFKVAKARLEETDRRTAKDVVENGETADQTLSLMEQLRGEALKFHKPGENYKTPGYVVTPHTMNLLKQHLEITGGQVRTRFPPEPNGILHIGHAKAINFNFGYAKANNGICFLRFDDTNPEKEEAKFFTAICDMVAWLGYTPYKVTYASDYFDQLYAWAVELIRRGLAYVCHQRGEELKGHNTLPSPWRDRPMEESLLLFEAMRKGKFSEGEATLRMKLVMEDGKMDPVAYRVKYTPHHRTGDKWCIYPTYDYTHCLCDSIEHITHSLCTKEFQARRSSYFWLCNALDVYCPVQWEYGRLNLHYAVVSKRKILQLVATGAVRDWDDPRLFTLTALRRRGFPPEAINNFCARVGVTVAQTTMEPHLLEACVRDVLNDTAPRAMAVLESLRVIITNFPAAKSLDIQVPNFPADETKGFHQVPFAPIVFIERTDFKEEPEPGFKRLAWGQPVGLRHTGYVIELQHVVKGPSGCVESLEVTCRRADAGEKPKAFIHWVSQPLMCEVRLYERLFQHKNPEDPTEVPGGFLSDLNLASLHVVDAALVDCSVALAKPFDKFQFERLGYFSVDPDSHQGKLVFNRTVTLKEDPGKV
Question: B5 was tested. Which binding did it give?
Answer: binds
